The values below come from paper PMC8597243.

One assay deals with T1, NME4-FLAG (human) (UniProt O00746).
T1 sequence: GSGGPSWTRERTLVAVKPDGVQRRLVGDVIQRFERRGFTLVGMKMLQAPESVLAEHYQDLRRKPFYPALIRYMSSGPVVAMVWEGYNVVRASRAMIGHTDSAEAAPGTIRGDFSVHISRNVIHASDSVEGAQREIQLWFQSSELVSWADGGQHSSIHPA
In words: co-IP; MDA-MB-231T cells transiently transfected, lysate (TEEN buffer: 50 mM Tris pH 7.4, 0.5% NP40, 150 mM NaCl, 5 mM EDTA), 200 µg input; pull-down with FLAG-agarose, overnight at 4 °C; Western blot. In general terms: In western blotting, separated proteins are transferred to a membrane and probed.

The target of another assay is T2, NME3-FLAG (human) (UniProt Q13232).
T2 sequence: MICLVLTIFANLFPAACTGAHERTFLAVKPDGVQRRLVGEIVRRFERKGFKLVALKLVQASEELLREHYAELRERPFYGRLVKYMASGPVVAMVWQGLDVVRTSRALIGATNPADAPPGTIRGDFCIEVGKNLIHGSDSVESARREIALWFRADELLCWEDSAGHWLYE
The description is as above.

Assay [1] has as its target endogenous NME6 (human (endogenous in MDA-MB-231T)). Nature of the assay: co-IP; MDA-MB-231T lysate (TEEN buffer: 50 mM Tris pH 7.4, 0.5% NP40, 150 mM NaCl, 5 mM EDTA), 200 µg input; anti-NME1, anti-NME6 or anti-RCC1L on Dynabeads protein G, overnight at 4 °C; Western blot.
Assay [2] has as its target optic atrophy 1 (OPA1) (human (endogenous in MDA-MB-231T)). In words: proximity ligation; in situ PLA (Duolink) on fixed, permeabilized MDA-MB-231T cells (Ctrl) or the clone KI-186-18 stably overexpressing NME6-186-FLAG; confocal microscopy.

These are yes or no findings as the source states them, for the method shown. Binding seen in cells or lysates may run through a third protein. For some assays here: Binding calls can cover weak binding; strength is not graded here. For some assays here: Sequences can lack the tags named with a protein.

Turning to “endogenous NME6 (human (endogenous in MDA-MB-231T))”, the binding result with NME4-FLAG (human) and in the assay with NME3-FLAG (human) was “no binding” in each case.

B1: NME3-FLAG (protein, UniProt Q13232 1-169)
chain: T2 sequence
Take B1: the binding entry in assay [1] is reported as “no binding”.

B2: endogenous NME4 (protein, UniProt O00746 29-187)
chain: T1 sequence
Regarding B2, the binding entry in assay [2] is “binds”.

B3: NME4-FLAG (protein, UniProt O00746 29-187)
chain: T1 sequence
As to B3, in assay [1], the binding entry is given as “no binding”.
